Data source: PubChem BioAssay AID1259308 (NCATS, 2017)

- Purpose: 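Knock-downs that increase output of a recombinant reporter protein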 (primary screen)
- Cell system: human HEK293 embryonic kidney cells stably expressing firefly luciferase (HEK-CMV-Luc2-Hygro)
- Knock-down reagent: single siRNA against human genes, 0.8 pmol siRNA per well
- Timing: 72 h
- Read-out: 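Luciferase light (ONE-Glo) measured on one replicate plate set and viability (CellTiter-Glo) on the other, scaled to a negative control siRNA, with robust z-scores and luciferase per cell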
- Direction: total luciferase, z-score: higher = more reporter protein produced
- Rule for the call: 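Active when the median/MAD z-score for overall luciferase is greater than 3; a gene was taken forward for validation with new siRNAs if at least two of its three siRNAs passed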
- Meaning of the calls: active = raised luciferase; inactive = no rise
This is one part, drawn at random, of about 59,000 deposited reagents. About 1,510 of them (2.6%) count as active. 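Calls use total luciferase alone and ignore viability, so some active siRNAs may act by altering cell number.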 Entries without a mark were called inactive. Reagents against one gene are numbered here. Further read-outs or replicates are left out here.

HMGB1P1 #1
- total luciferase, z-score: 1.82

HMGB1P1 #2
- total luciferase, z-score: -0.704

HMGB1P1 #3
- total luciferase, z-score: -0.376

AURKC #1
- total luciferase, z-score: 0.674

AURKC #2
- total luciferase, z-score: -0.0423

AURKC #3
- total luciferase, z-score: -0.588

PHETA1 #1
- total luciferase, z-score: -1.25

PHETA1 #2
- total luciferase, z-score: 1.24

PHETA1 #3
- total luciferase, z-score: -0.852

ENPEP #1
- total luciferase, z-score: 1.17

ENPEP #2
- total luciferase, z-score: 0.128

ENPEP #3
- total luciferase, z-score: 0.653

TMEM196 #1
- total luciferase, z-score: 0.153

TMEM196 #2
- total luciferase, z-score: 1.44

TMEM196 #3
- total luciferase, z-score: -0.312

BCL11B #1
- total luciferase, z-score: -0.444

BCL11B #2
- total luciferase, z-score: 2.21

BCL11B #3
- total luciferase, z-score: 4.55 (active)

SAMD11 #1
- total luciferase, z-score: 1.32

SAMD11 #2
- total luciferase, z-score: 1.2

SAMD11 #3
- total luciferase, z-score: 4.91 (active)

ERBIN #1
- total luciferase, z-score: 1.81

ERBIN #2
- total luciferase, z-score: -0.762

ERBIN #3
- total luciferase, z-score: -0.559

GPRIN2 #1
- total luciferase, z-score: -0.406

GPRIN2 #2
- total luciferase, z-score: 2.2

GPRIN2 #3
- total luciferase, z-score: 0.41

MRPL37 #1
- total luciferase, z-score: 2.38

MRPL37 #2
- total luciferase, z-score: -0.532

MRPL37 #3
- total luciferase, z-score: 0.515

CPVL #1
- total luciferase, z-score: -0.0617

CPVL #2
- total luciferase, z-score: 0.0764

CPVL #3
- total luciferase, z-score: -0.246

PAFAH1B1 #1
- total luciferase, z-score: 0.421

PAFAH1B1 #2
- total luciferase, z-score: -0.16

PAFAH1B1 #3
- total luciferase, z-score: 1.41

TRPC1 #1
- total luciferase, z-score: 1.34

TRPC1 #2
- total luciferase, z-score: 0.235

TRPC1 #3
- total luciferase, z-score: 1.73

ZC3HC1 #1
- total luciferase, z-score: -0.571

ZC3HC1 #2
- total luciferase, z-score: -0.432

ZC3HC1 #3
- total luciferase, z-score: -1.5

A stretch of the results above, for reference:
PAFAH1B1 #2
- total luciferase, z-score: -0.16

PAFAH1B1 #3
- total luciferase, z-score: 1.41

TRPC1 #1
- total luciferase, z-score: 1.34
